Assay results from publication PMC5146969.
Where two headings read alike, the source gives them in different places. These are yes or no findings as the source states them, for the method shown. In cells and extracts the contact can be indirect. Some entries that bind do so weakly or less than the wild type. For part of these data: Tags and fused reporters may be left off the sequences shown.

The chains behind the UniProt entries cited, without tags or fusion partners.
UniProt Q04207: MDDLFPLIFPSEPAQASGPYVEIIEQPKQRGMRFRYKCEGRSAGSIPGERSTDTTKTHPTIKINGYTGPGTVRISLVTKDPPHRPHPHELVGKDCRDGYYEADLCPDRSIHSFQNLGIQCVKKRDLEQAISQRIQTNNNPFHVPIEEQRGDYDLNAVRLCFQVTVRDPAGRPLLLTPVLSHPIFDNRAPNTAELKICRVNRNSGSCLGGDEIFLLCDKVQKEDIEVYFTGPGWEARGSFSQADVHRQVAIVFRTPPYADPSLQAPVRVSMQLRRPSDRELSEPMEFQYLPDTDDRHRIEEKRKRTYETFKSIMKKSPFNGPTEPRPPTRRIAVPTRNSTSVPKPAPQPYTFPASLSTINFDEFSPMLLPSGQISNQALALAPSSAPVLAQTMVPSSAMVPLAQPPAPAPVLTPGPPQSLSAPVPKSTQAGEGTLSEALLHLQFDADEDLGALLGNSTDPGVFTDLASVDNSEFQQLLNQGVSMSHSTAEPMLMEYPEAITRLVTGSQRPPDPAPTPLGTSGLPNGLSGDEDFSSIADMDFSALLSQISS

T1: IκB kinase alpha (IKKα), endogenous (mouse (endogenous in RAW 264.7)) (UniProt Q60680)
T1 sequence: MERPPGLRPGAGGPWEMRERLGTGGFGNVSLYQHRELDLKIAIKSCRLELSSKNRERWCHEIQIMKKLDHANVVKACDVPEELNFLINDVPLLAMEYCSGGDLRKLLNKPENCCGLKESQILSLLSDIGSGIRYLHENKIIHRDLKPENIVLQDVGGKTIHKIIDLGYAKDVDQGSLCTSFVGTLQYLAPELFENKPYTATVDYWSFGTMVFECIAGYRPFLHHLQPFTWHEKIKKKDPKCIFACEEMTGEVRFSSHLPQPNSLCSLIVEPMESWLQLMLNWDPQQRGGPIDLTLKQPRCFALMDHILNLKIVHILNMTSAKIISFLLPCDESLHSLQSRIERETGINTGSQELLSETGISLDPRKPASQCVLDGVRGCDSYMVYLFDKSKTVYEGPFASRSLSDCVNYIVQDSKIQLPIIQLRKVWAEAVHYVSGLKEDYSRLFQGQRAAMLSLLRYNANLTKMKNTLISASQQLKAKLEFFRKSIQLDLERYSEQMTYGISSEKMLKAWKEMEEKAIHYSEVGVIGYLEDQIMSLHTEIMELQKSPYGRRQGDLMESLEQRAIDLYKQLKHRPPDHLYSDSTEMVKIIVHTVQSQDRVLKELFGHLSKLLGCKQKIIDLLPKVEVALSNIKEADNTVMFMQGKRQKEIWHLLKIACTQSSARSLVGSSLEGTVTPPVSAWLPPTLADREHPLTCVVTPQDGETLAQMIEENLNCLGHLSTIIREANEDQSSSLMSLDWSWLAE

T2: transforming growth factor β-activated kinase 1 (TAK1), endogenous (mouse (endogenous in RAW 264.7)) (UniProt Q62073)
T2 sequence: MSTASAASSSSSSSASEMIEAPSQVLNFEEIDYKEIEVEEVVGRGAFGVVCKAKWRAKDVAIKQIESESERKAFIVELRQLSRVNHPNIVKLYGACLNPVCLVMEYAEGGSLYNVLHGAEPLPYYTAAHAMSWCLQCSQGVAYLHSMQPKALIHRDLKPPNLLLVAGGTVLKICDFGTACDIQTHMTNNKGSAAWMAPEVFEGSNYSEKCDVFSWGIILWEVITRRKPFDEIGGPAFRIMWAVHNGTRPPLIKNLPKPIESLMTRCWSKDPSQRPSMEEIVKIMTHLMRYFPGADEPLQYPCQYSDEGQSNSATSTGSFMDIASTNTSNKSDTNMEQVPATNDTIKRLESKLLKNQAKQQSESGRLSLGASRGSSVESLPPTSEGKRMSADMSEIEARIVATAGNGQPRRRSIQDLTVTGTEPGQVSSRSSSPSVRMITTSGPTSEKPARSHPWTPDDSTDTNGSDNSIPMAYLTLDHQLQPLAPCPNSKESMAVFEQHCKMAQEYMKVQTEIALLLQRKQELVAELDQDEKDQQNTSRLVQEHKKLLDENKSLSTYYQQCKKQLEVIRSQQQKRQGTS

B1: GFP-tagged STRAP (serine/threonine kinase receptor-associated protein), mouse (protein, UniProt Q9Z1Z2 1-350)
chain: MAMRQTPLTCSGHTRPVVDLAFSGITPYGYFLISACKDGKPMLRQGDTGDWIGTFLGHKGAVWGATLNKDATKAATAAADFTAKVWDAVSGDELMTLAHKHIVKTVDFTQDSNYLLTGGQDKLLRIYDLNKPEAEPKEISGHTSGIKKALWCSDDKQILSADDKTVRLWDHATMTEVKSLNFNMSVSSMEYIPEGEILVITYGRSIAFHSAVSLEPIKSFEAPATINSASLHPEKEFLVAGGEDFKLYKYDYNSGEELESYKGHFGPIHCVRFSPDGELYASGSEDGTLRLWQTVVGKTYGLWKCVLPEEDSGELAKPKIGFPETAEEELEEIASENSDSIYSSTPEVKA
B2: endogenous STRAP (serine/threonine kinase receptor-associated protein) (protein, UniProt Q9Z1Z2 1-350)
chain: B1 chain
B3: transforming growth factor β-activated kinase 1 (TAK1), endogenous (enzyme, UniProt Q62073 1-579)
chain: T2 sequence

Legend:
Test in all cases: co-IP; RAW 264.7 macrophages stimulated with LPS (80 ng/ml) for the indicated times; lysed in 1% digitonin, 2 h, 4 °C; lysates with primary antibody (anti-TAK1, anti-IKKα or anti-p65) overnight at 4 °C, protein G-Sepharose 1 h; washed with 0.1% digitonin; immunoblot; cells also with stable GFP-STRAP, GFP-STRAPΔC, shRNA-GFP or shRNA-STRAP
[1] = target: T1, IκB kinase alpha (IKKα), endogenous (mouse (endogenous in RAW 264.7))
[2] = target: T1, IκB kinase alpha (IKKα), endogenous (mouse (endogenous in RAW 264.7)); remark: listed apart in the source
[3] = target: nuclear factor-κB (NF-κB) subunit p65, endogenous (mouse (endogenous in RAW 264.7)) (UniProt Q04207)
[4] = target: T2, transforming growth factor β-activated kinase 1 (TAK1), endogenous (mouse (endogenous in RAW 264.7))

Row | Molecule | binding [1] | binding [2] | binding [3] | binding [4]
1 | nuclear factor-κB (NF-κB) subunit p65, endogenous (from UniProt Q04207 1-549) | binds |  |  | 
2 | B1 |  | binds | binds | binds
3 | B2 |  | binds | binds | binds
4 | B3 |  | binds | binds | 
